# For part of these data: This list holds what a sample rich in strong results left over. No rule for the calls is given here. This is a selection; strong and weak results do not stand in their true shares.
# Sequences of proteins named here, by UniProt entry; tags and fusion partners are left off. A change or cut given only in a name is not applied to a line headed by its entry.
# UniProt Q9HC98: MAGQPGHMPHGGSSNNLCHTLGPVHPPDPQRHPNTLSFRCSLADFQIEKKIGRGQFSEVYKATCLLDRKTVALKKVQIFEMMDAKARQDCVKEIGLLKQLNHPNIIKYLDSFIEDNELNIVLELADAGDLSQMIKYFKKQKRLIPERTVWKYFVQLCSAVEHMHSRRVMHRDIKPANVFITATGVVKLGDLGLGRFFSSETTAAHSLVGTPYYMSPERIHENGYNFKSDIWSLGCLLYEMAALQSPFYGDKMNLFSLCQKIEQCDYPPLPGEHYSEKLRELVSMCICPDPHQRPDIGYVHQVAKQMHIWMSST
# UniProt Q13177, whole entry: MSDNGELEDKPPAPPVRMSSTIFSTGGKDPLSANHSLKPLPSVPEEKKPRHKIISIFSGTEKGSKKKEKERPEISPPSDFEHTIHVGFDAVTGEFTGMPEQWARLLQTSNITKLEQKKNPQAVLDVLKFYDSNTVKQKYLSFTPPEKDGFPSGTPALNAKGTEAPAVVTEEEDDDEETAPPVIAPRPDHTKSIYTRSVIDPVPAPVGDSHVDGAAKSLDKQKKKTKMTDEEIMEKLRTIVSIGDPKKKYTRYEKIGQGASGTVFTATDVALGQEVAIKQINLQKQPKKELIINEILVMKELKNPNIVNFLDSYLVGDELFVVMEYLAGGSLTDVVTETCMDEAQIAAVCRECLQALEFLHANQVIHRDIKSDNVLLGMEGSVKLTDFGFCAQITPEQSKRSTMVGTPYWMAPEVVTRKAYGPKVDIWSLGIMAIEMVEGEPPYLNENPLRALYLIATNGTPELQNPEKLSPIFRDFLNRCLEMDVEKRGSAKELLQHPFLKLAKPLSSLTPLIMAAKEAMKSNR
# UniProt Q96RG2: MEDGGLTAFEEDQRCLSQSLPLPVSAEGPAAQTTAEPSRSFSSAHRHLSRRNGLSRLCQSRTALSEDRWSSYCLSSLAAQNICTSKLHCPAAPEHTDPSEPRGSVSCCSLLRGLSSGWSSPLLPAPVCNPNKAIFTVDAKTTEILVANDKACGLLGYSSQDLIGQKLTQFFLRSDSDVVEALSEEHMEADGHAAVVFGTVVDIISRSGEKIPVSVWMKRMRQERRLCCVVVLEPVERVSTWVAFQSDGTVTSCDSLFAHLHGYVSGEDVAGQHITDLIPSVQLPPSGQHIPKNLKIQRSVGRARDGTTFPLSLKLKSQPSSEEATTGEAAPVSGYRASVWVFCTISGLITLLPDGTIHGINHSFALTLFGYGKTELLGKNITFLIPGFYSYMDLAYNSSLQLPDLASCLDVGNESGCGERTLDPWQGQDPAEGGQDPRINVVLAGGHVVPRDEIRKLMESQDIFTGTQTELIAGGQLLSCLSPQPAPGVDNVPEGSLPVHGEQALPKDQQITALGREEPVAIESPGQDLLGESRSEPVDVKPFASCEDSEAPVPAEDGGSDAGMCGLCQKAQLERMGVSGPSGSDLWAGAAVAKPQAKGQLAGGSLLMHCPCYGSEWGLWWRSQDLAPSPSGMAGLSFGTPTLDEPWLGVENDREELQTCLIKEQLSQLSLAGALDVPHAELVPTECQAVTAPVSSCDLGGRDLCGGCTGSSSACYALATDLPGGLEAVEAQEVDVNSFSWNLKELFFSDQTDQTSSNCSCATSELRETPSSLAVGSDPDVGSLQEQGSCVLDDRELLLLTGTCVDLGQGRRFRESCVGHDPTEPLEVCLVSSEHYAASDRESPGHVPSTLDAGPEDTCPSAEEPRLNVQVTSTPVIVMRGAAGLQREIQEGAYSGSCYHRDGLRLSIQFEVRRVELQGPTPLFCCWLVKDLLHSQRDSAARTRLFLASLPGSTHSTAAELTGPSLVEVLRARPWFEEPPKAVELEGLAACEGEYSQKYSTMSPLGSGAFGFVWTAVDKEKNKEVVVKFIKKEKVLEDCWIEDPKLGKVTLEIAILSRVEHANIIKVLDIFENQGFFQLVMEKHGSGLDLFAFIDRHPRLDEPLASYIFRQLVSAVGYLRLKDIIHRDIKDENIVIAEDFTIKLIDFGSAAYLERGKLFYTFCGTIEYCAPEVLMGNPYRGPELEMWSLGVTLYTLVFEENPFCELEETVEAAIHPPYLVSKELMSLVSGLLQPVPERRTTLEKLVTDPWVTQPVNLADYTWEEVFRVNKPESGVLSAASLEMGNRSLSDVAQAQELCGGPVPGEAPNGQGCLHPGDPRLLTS
# UniProt P54619: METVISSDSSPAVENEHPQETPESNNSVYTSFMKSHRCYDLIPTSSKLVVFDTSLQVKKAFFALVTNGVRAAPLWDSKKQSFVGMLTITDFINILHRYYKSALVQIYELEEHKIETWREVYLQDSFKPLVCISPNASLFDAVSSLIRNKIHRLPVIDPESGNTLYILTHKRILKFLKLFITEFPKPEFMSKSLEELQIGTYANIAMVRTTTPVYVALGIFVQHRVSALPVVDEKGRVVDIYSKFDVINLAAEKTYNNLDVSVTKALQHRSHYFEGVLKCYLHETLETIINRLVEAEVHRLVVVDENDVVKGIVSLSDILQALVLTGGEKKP
# UniProt Q13131: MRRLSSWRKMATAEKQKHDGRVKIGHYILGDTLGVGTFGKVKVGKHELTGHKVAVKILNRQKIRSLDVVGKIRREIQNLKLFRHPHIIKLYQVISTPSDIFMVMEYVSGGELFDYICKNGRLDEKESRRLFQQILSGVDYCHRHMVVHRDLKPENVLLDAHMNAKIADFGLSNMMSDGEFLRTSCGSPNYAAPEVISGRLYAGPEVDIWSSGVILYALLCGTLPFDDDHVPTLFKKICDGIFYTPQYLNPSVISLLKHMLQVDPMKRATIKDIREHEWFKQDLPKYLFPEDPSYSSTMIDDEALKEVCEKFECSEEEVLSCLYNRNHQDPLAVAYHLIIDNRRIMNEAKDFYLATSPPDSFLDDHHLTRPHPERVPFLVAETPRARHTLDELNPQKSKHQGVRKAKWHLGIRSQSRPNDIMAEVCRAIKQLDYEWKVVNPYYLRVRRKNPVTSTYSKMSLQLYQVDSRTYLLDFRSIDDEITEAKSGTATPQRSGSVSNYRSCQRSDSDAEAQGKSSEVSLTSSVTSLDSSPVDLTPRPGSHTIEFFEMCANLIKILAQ
# UniProt O43741: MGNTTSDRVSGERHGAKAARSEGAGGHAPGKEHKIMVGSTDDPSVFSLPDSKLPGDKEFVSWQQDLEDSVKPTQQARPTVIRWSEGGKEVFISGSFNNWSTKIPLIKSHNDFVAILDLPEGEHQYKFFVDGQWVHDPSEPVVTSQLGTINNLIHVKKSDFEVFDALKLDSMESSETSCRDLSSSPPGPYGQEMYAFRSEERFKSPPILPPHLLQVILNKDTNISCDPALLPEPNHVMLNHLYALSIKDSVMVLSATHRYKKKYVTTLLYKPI
# UniProt O60285: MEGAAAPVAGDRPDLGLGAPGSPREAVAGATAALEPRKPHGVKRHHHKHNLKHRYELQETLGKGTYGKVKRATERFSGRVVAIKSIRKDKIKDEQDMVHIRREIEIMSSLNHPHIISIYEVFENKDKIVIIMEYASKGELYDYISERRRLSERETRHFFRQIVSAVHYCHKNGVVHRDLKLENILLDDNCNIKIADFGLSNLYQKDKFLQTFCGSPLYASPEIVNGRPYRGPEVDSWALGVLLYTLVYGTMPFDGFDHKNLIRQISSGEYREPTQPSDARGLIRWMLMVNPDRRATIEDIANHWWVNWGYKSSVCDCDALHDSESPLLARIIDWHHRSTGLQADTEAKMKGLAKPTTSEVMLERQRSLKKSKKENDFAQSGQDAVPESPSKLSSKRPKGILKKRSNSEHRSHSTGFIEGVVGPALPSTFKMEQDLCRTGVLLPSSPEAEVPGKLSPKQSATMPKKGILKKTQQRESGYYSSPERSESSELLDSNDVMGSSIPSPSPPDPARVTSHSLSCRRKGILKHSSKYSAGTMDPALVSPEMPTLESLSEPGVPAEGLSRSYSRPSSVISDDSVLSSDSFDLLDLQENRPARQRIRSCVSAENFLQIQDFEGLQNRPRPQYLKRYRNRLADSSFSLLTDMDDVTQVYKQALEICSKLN
# UniProt P16234: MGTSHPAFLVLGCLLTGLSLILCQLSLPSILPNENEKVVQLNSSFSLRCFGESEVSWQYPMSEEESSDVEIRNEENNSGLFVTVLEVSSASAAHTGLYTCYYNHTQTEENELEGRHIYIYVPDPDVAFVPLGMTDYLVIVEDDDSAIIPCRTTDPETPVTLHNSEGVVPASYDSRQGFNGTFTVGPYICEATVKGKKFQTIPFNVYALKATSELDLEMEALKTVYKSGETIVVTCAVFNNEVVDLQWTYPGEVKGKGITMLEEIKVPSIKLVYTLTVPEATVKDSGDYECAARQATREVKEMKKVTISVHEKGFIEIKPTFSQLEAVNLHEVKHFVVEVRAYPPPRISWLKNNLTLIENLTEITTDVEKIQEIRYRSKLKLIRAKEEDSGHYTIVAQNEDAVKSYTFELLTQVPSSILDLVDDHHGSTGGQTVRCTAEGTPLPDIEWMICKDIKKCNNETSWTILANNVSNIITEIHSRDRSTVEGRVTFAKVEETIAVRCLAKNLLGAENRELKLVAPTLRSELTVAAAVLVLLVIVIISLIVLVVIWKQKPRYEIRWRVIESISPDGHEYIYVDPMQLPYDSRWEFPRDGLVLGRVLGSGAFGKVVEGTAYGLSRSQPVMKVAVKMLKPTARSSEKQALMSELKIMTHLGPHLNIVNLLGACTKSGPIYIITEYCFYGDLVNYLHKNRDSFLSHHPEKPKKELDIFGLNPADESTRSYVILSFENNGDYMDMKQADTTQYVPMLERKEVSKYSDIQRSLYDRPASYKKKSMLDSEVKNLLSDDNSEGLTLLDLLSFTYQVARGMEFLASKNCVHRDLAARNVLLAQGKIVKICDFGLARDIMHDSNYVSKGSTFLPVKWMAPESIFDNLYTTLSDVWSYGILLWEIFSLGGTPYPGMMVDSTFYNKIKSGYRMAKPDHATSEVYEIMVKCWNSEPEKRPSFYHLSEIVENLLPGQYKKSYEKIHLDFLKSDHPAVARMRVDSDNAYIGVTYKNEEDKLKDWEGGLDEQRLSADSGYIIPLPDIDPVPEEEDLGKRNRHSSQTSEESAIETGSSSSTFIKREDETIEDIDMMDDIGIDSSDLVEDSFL
# UniProt P05771, whole entry, looked up: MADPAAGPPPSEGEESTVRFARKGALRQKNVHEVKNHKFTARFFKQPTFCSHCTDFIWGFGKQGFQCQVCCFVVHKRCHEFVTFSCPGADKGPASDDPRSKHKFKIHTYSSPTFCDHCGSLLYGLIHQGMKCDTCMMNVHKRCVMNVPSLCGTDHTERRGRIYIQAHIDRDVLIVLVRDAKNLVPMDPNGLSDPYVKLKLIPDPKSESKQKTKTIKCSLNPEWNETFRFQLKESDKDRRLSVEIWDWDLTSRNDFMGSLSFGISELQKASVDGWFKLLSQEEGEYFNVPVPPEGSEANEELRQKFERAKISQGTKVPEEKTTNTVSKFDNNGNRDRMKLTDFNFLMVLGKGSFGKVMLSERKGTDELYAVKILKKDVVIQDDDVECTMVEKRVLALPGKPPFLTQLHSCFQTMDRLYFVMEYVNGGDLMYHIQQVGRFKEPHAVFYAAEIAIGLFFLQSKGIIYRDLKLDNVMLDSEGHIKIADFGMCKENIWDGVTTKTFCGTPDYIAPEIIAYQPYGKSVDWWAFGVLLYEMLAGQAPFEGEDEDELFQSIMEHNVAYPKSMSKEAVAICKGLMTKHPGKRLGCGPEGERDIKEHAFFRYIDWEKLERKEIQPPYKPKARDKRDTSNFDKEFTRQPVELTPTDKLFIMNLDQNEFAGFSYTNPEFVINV
# Columns and labels:
# [1] = target: Serine/threonine-protein kinase mTOR (Homo sapiens) (UniProt P42345); details: at 1 µM
# [2] = target: Serine/threonine-protein kinase mTOR (Homo sapiens) (UniProt P42345); details: at 10 µM
# [3] = target: Ribosomal protein S6 kinase beta-1 (Homo sapiens) (UniProt P23443); details: at 1 µM
# [4] = target: Ribosomal protein S6 kinase beta-1 (Homo sapiens) (UniProt P23443); details: at 10 µM
# [5] = target: Serine/threonine-protein kinase Nek6 (Homo sapiens) (UniProt Q9HC98); details: at 1 µM
# [6] = target: Serine/threonine-protein kinase Nek6 (Homo sapiens) (UniProt Q9HC98); details: at 10 µM
# [7] = target: Serine/threonine-protein kinase Nek7 (Homo sapiens) (UniProt Q8TDX7); details: at 1 µM
# [8] = target: Serine/threonine-protein kinase Nek7 (Homo sapiens) (UniProt Q8TDX7); details: at 10 µM
# [9] = target: Serine/threonine-protein kinase NLK (Homo sapiens) (UniProt Q9UBE8); details: at 1 µM
# [10] = target: Serine/threonine-protein kinase NLK (Homo sapiens) (UniProt Q9UBE8); details: at 10 µM
# [11] = target: Serine/threonine-protein kinase PAK 2 (Homo sapiens) (UniProt Q13177); details: at 1 µM
# [12] = target: Serine/threonine-protein kinase PAK 2 (Homo sapiens) (UniProt Q13177); details: at 10 µM
# [13] = target: Serine/threonine-protein kinase PAK 4 (Homo sapiens) (UniProt O96013); details: at 1 µM
# [14] = target: Serine/threonine-protein kinase PAK 4 (Homo sapiens) (UniProt O96013); details: at 10 µM
# [15] = target: Serine/threonine-protein kinase PAK 5 (Homo sapiens) (UniProt Q9P286); details: at 1 µM
# [16] = target: Serine/threonine-protein kinase PAK 5 (Homo sapiens) (UniProt Q9P286); details: at 10 µM
# [17] = target: Serine/threonine-protein kinase PAK 6 (Homo sapiens) (UniProt Q9NQU5); details: at 1 µM
# [18] = target: Serine/threonine-protein kinase PAK 6 (Homo sapiens) (UniProt Q9NQU5); details: at 10 µM
# [19] = target: PAS domain-containing serine/threonine-protein kinase (Homo sapiens) (UniProt Q96RG2); details: at 1 µM
# [20] = target: PAS domain-containing serine/threonine-protein kinase (Homo sapiens) (UniProt Q96RG2); details: at 10 µM
# [21] = target: Activated CDC42 kinase 1 (Homo sapiens) (UniProt Q07912); details: at 1 µM
# [22] = target: Activated CDC42 kinase 1 (Homo sapiens) (UniProt Q07912); details: at 10 µM
# [23] = target: ALK tyrosine kinase receptor (Homo sapiens) (UniProt Q9UM73); details: at 1 µM
# [24] = target: ALK tyrosine kinase receptor (Homo sapiens) (UniProt Q9UM73); details: at 10 µM
# [25] = target: Activin receptor type-1B (Homo sapiens) (UniProt P36896); details: at 1 µM
# [26] = target: Activin receptor type-1B (Homo sapiens) (UniProt P36896); details: at 10 µM
# [27] = target: T1, AMP-activated protein kinase (AMPK) alpha-1/beta-1/gamma-1 (Homo sapiens) (UniProt P54619+Q9Y478+Q13131); details: at 1 µM
# [28] = target: T1, AMP-activated protein kinase (AMPK) alpha-1/beta-1/gamma-1 (Homo sapiens); details: at 10 µM
# [29] = target: T2, AMP-activated protein kinase, AMPK (Homo sapiens) (UniProt P54646+O43741+P54619+Q9UGJ0+Q9Y478+Q13131+Q9UGI9); details: at 1 µM
# [30] = target: T2, AMP-activated protein kinase, AMPK (Homo sapiens); details: at 10 µM
# [31] = target: NUAK family SNF1-like kinase 1 (Homo sapiens) (UniProt O60285); details: at 1 µM
# [32] = target: NUAK family SNF1-like kinase 1 (Homo sapiens) (UniProt O60285); details: at 10 µM
# [33] = target: Mitogen-activated protein kinase kinase kinase 5 (Homo sapiens) (UniProt Q99683); details: at 1 µM
# [34] = target: Platelet-derived growth factor receptor alpha (Homo sapiens) (UniProt P16234); details: at 1 µM
# [35] = target: Platelet-derived growth factor receptor alpha (Homo sapiens) (UniProt P16234); details: at 10 µM
# [36] = target: Platelet-derived growth factor receptor beta (Homo sapiens) (UniProt P09619); details: at 1 µM
# [37] = target: Platelet-derived growth factor receptor beta (Homo sapiens) (UniProt P09619); details: at 10 µM
# [38] = target: 3-phosphoinositide-dependent protein kinase 1 (Homo sapiens) (UniProt O15530); details: at 1 µM
# [39] = target: 3-phosphoinositide-dependent protein kinase 1 (Homo sapiens) (UniProt O15530); details: at 10 µM
# [40] = target: cAMP-dependent protein kinase catalytic subunit alpha (Homo sapiens) (UniProt P17612); details: at 1 µM
# [41] = target: cAMP-dependent protein kinase catalytic subunit alpha (Homo sapiens) (UniProt P17612); details: at 10 µM
# [42] = target: RAC-alpha serine/threonine-protein kinase (Homo sapiens) (UniProt P31749); details: at 1 µM
# [43] = target: RAC-alpha serine/threonine-protein kinase (Homo sapiens) (UniProt P31749); details: at 10 µM
# [44] = target: RAC-gamma serine/threonine-protein kinase (Homo sapiens) (UniProt Q9Y243); details: at 1 µM
# [45] = target: RAC-gamma serine/threonine-protein kinase (Homo sapiens) (UniProt Q9Y243); details: at 10 µM
# [46] = target: Protein kinase C alpha type (Homo sapiens) (UniProt P17252); details: at 1 µM
# [47] = target: Protein kinase C alpha type (Homo sapiens) (UniProt P17252); details: at 10 µM
# [48] = target: Protein kinase C beta type (Homo sapiens) (UniProt P05771); details: at 1 µM
# [49] = target: Protein kinase C beta type (Homo sapiens) (UniProt P05771); details: at 10 µM
# [50] = target: Protein kinase C beta type (Homo sapiens) (UniProt P05771); details: at 1 µM; remark: listed apart in the source
# [51] = target: Protein kinase C beta type (Homo sapiens) (UniProt P05771); details: at 10 µM; remark: listed apart in the source
# [52] = target: Protein kinase C gamma type (Homo sapiens) (UniProt P05129); details: at 1 µM
# [53] = target: Protein kinase C gamma type (Homo sapiens) (UniProt P05129); details: at 10 µM
# [54] = target: Protein kinase C delta type (Homo sapiens) (UniProt Q05655); details: at 1 µM
# [55] = target: Protein kinase C delta type (Homo sapiens) (UniProt Q05655); details: at 10 µM
# [56] = target: Protein kinase C epsilon type (Homo sapiens) (UniProt Q02156); details: at 1 µM
# [57] = target: Protein kinase C epsilon type (Homo sapiens) (UniProt Q02156); details: at 10 µM
smiles,measurement,setting,value
O=C1Nc2ccc(-c3cccnc3)cc2/C1=C\c1ccc[nH]1,residual activity,[1],76%
same,residual activity,[2],105%
same,residual activity,[3],8%
same,residual activity,[4],2%
same,residual activity,[5],inactive: 90%
same,residual activity,[6],108%
same,residual activity,[7],inactive: 101%
same,residual activity,[8],inactive: 99%
same,residual activity,[9],75%
same,residual activity,[10],40%
same,residual activity,[11],86%
same,residual activity,[12],37%
same,residual activity,[13],68%
same,residual activity,[14],23%
same,residual activity,[15],66%
same,residual activity,[16],22%
same,residual activity,[17],64%
same,residual activity,[18],18%
same,residual activity,[19],40%
same,residual activity,[20],-1%
same,residual activity,[21],57%
same,residual activity,[22],20%
same,residual activity,[23],63%
same,residual activity,[24],26%
same,residual activity,[25],64%
same,residual activity,[26],5%
same,residual activity,[27],6%
same,residual activity,[28],1%
same,residual activity,[29],5%
same,residual activity,[30],0%
same,residual activity,[31],10%
same,residual activity,[32],6%
same,residual activity,[33],61%
same,residual activity,[34],93%
same,residual activity,[35],41%
same,residual activity,[36],71%
same,residual activity,[37],24%
same,residual activity,[38],6%
same,residual activity,[39],2%
same,residual activity,[40],61%
same,residual activity,[41],26%
same,residual activity,[42],96%
same,residual activity,[43],109%
same,residual activity,[44],68%
same,residual activity,[45],20%
same,residual activity,[46],87%
same,residual activity,[47],45%
same,residual activity,[48],93%
same,residual activity,[49],49%
same,residual activity,[50],83%
same,residual activity,[51],50%
same,residual activity,[52],67%
same,residual activity,[53],16%
same,residual activity,[54],54%
same,residual activity,[55],11%
same,residual activity,[56],69%
same,residual activity,[57],53%
